Assay results: patent US20180201687A1
These are yes or no findings as the source states them, for the method shown. Some entries that bind do so weakly or less than the wild type.

Chains of the proteins cited; added tags and fusions are not shown. Lines headed by an entry give the natural chain unless they say otherwise; changes in a name come on top. A line that says so, or that is headed by a name, gives the form on record, which may keep a tag or linker.
myosin 18Aβ (190 kDa short isoform of myosin 18A) (Q92614, form named): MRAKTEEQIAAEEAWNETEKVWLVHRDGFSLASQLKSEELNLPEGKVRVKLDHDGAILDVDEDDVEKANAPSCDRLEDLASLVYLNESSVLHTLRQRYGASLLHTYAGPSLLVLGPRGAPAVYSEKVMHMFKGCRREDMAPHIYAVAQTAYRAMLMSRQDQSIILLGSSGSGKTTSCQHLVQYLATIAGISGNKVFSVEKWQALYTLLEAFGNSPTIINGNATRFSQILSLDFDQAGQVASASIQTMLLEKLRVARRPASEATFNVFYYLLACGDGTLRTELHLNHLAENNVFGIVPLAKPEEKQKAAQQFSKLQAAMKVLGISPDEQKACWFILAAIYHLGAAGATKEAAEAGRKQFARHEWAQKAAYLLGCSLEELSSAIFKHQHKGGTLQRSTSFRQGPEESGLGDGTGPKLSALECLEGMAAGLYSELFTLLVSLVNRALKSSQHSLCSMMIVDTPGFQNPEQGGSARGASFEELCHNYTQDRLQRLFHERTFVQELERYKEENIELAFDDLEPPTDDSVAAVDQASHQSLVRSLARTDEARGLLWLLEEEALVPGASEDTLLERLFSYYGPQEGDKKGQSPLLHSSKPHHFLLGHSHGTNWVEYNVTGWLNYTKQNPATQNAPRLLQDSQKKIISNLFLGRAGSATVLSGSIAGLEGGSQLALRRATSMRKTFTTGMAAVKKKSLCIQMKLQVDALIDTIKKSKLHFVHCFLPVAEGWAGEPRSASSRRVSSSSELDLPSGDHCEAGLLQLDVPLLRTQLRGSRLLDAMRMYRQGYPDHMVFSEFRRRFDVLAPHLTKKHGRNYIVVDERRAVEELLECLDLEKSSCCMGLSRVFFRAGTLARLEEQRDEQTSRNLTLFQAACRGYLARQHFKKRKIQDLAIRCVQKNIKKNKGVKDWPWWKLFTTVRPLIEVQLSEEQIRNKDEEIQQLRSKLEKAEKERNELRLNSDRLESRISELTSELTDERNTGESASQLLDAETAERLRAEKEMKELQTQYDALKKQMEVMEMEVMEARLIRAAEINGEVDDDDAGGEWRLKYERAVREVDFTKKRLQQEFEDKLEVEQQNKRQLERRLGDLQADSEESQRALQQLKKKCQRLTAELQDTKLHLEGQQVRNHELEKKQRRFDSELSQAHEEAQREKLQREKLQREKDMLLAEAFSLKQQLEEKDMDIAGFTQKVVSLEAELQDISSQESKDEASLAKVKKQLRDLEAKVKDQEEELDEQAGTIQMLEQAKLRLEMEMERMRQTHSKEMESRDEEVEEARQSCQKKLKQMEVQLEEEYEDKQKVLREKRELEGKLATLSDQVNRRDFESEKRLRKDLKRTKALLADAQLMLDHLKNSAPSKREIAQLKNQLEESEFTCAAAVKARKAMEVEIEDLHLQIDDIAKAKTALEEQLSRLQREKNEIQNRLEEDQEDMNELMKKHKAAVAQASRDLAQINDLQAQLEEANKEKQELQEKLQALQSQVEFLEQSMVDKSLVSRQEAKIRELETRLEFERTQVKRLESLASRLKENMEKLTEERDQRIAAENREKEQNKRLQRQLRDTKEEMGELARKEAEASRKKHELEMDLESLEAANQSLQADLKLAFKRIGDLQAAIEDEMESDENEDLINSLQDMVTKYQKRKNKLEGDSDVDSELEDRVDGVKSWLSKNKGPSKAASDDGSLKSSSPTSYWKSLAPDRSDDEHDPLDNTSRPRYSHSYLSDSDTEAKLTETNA

Experiments:
[1] = biological target: myosin 18Aβ (190 kDa short isoform of myosin 18A) (human) (UniProt Q92614); test: immunoprecipitation of PBMC lysates, immunoblot with polyclonal anti-myosin 18A
[2] = biological target: myosin 18Aβ (190 kDa short isoform of myosin 18A) (human) (UniProt Q92614); test: immunoprecipitation of human lung lysates, immunoblot with polyclonal anti-myosin 18A
[3] = biological target: myosin 18Aβ (190 kDa short isoform of myosin 18A) (human) (UniProt Q92614); test: immunoprecipitation of YT2C2 cell lysates, immunoblot with polyclonal anti-myosin 18A

binding [1]: binds
binding [2]: binds
binding [3]: binds
B1: DY12 monoclonal antibody (anti-CD245 mAb) (antibody, V domains shown)
VH: QVQLQQPGAELVRPGASVMLSCKASGYTFTNYWINWVRQRPGQGLEWIGNIYPSDSYTNYNQKFKDKATLTVDNSSSTAYMQFSSPTSEDSAVYFCTRLTTVGAGAMDYWGQGTSVTVSS
VL: DIQMTQSSSYLSVSLGGRVTITCKASDHINNWLAWYQQKPGNAPRLLISGATSLETGVPSRFSGSGSGKDYTLSIFSLQSEDVATYYCQQYWSTPFTFGSGTKLEIK
